Laboratory results: patent US20190389943A1
Results are given in words; binding and its absence hold for the method and conditions named. Some results given as binding are weak or reduced against the parent protein; the word gives no strength.

Protein sequences, listed by entry. Tags and fused reporters are not part of them. Lines headed by an entry give the natural chain unless they say otherwise; changes in a name come on top. Residues count along the entry.
UniProt P11087: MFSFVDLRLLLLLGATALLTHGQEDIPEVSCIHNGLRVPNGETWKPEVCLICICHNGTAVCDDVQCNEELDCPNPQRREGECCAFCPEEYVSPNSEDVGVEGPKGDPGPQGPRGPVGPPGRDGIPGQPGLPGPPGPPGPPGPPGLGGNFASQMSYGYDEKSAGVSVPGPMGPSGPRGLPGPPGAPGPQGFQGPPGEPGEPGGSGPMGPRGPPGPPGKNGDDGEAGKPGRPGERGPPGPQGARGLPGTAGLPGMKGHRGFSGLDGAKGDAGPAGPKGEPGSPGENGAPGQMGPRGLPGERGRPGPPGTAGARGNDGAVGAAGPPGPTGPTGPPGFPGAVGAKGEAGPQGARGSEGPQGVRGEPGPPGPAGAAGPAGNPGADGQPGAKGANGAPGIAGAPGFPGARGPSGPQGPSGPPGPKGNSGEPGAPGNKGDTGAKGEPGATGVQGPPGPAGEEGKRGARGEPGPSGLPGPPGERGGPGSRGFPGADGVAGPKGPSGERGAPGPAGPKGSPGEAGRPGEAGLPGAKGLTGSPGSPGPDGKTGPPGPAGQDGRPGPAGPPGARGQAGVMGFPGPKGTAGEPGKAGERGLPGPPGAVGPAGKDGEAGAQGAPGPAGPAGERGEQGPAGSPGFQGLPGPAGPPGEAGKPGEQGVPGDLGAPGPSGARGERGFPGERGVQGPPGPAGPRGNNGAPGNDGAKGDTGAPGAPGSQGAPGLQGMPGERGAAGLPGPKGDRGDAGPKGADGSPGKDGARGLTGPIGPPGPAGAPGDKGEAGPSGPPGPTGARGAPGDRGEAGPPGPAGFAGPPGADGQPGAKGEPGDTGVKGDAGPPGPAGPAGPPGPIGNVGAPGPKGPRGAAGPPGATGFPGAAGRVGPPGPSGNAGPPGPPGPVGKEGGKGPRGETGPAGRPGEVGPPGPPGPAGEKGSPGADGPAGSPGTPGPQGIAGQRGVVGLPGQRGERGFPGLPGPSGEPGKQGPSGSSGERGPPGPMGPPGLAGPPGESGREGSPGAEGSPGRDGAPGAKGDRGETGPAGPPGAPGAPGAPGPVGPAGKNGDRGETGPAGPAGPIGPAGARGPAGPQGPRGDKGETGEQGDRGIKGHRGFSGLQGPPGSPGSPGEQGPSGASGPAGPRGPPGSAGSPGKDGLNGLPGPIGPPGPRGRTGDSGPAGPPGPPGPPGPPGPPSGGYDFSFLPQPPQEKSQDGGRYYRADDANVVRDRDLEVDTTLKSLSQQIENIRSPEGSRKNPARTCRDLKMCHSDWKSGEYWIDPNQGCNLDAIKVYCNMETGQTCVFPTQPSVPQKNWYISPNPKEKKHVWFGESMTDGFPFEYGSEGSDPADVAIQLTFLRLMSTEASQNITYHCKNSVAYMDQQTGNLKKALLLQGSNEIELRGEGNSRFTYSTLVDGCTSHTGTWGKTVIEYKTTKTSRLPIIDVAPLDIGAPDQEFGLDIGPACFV
UniProt Q01149: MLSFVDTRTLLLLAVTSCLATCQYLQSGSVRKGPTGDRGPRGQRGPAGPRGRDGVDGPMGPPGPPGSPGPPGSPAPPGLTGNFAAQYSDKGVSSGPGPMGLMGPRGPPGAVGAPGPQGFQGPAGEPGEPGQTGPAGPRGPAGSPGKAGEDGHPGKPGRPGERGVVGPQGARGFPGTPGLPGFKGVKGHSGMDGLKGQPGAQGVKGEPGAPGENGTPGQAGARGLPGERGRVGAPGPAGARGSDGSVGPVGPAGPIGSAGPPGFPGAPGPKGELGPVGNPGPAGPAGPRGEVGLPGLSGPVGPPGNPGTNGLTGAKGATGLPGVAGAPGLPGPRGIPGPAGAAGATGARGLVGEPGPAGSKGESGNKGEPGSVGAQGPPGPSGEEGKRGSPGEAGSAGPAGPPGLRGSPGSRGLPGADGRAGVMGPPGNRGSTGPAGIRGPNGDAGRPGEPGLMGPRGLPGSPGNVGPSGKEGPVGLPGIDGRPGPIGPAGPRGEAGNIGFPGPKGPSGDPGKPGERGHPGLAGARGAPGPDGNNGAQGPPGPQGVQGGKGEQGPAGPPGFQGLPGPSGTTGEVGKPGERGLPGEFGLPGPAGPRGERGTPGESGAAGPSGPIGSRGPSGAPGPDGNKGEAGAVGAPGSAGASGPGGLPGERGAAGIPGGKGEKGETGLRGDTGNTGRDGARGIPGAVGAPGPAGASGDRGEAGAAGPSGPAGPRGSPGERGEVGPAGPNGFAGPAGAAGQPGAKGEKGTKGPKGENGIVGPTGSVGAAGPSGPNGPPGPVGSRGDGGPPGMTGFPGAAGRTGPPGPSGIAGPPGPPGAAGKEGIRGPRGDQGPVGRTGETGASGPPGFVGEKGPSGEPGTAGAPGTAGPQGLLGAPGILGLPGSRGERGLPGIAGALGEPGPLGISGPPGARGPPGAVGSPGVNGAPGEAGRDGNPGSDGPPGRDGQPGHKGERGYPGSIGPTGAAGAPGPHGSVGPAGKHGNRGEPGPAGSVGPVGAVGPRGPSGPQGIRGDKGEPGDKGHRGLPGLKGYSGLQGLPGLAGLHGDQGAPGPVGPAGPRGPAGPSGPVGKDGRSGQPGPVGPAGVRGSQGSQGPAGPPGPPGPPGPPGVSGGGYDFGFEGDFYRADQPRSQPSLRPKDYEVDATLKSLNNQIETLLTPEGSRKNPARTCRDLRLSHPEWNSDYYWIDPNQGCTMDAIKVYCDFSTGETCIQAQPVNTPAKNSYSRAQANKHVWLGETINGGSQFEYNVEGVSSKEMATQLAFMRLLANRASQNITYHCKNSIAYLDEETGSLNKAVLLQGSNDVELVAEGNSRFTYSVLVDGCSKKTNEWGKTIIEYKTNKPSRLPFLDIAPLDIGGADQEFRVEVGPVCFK
UniProt P07585, residues 31-359: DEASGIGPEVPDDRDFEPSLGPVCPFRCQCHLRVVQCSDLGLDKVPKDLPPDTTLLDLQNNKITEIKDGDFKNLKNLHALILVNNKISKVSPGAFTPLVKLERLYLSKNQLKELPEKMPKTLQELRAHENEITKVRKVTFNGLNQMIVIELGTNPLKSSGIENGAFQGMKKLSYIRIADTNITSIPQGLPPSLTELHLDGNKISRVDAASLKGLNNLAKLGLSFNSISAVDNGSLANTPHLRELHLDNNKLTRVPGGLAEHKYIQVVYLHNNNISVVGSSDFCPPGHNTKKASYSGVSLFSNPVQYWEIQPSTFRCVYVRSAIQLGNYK

Columns and labels:
[1] = biological target: T1, Purified native mouse tendon type I collagen from wild type mice (mouse) (UniProt P11087+Q01149); test: SPR (BIACore X), collagen immobilised on CM5 chip, decorin at 3, 5 and 12 uM
[2] = biological target: T1, Purified native mouse tendon type I collagen from wild type mice (mouse); test: SPR (BIACore X), collagen immobilised on CM5 chip

binding [1]: binds | binding [2]: binds
Substance: Recombinant human decorin core protein (R&D systems) (from UniProt P07585 31-359)
